PubChem BioAssay AID1159578 | Peter MacCallum Cancer Centre | 2015
Here is a random part of about 18,000 reagents tested. About 1,030 of them (5.7%) were called active. 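Inactive calls also include pools with fewer than 3300 nuclei, whose migration was not assessed.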 The raw values are shown without normalisation. Entries without a mark were called inactive. Not all columns of the deposit are shown. Reagent sequences are not shown.

- Assay: 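Knock-downs that alter how fast lymphatic endothelial cells migrate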 (primary screen)
- Cell system: human lymphatic endothelial cells
- Reagent: siRNA pool against human genes, 40 nM
- Timing: 48 h after transfection
- Measurement: 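Cells stained with dye and imaged after a scratch; covered wound area and nuclei counted, duplicates averaged, migration set against mock wells and turned into a robust z-score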
- Scale: migration robust z-score: higher = faster migration into the scratch; nuclei per well: higher = more cells in the well
- Call rule: 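Pools averaging fewer than 3300 nuclei are never called; remaining pools count as changed when migration robust z lies outside -2 to 2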
- Meaning of the calls: active = migration changed; inactive = no migration change, or too few cells

For CDR2 (cerebellar degeneration related protein 2) [SID255348855], the values are migration robust z-score 0.36; migration class with cell-count check migration z between -2 and 2; enough cells; nuclei per well, duplicate mean 5078.
Knock-down of TWIST1 (twist family bHLH transcription factor 1) [SID255353009] came out at: migration robust z-score -1.82; migration class with cell-count check migration z between -2 and 2; enough cells; nuclei per well, duplicate mean 4336.
For RNF181 (ring finger protein 181) [SID255357592] the deposit lists migration robust z-score -0.6; migration class with cell-count check migration z between -2 and 2; enough cells; nuclei per well, duplicate mean 6214.
Depletion of SLC25A10 [SID255349139] came out at: migration robust z-score 0.26; migration class with cell-count check migration z between -2 and 2; enough cells; nuclei per well, duplicate mean 5108.
Silencing of CUL1 (cullin 1) [SID255353565] resulted in: migration robust z-score 2.7 (active); migration class with cell-count check migration z above 2; enough cells; nuclei per well, duplicate mean 5889.
LY6H (lymphocyte antigen 6 family member H) [SID255350817] showed migration robust z-score 0.41; migration class with cell-count check migration z between -2 and 2; enough cells; nuclei per well, duplicate mean 6142.
PRKD1 (protein kinase D1) [SID255351804] gave migration robust z-score -0.55; migration class with cell-count check migration z between -2 and 2; enough cells; nuclei per well, duplicate mean 5490.
Depletion of NME6 (NME/NM23 nucleoside diphosphate kinase 6) [SID255354889] gave: migration robust z-score -0.16; migration class with cell-count check migration z between -2 and 2; enough cells; nuclei per well, duplicate mean 4811.
For G3BP2 (G3BP stress granule assembly factor 2) [SID255354656] the deposit lists migration robust z-score 0.86; migration class with cell-count check migration z between -2 and 2; enough cells; nuclei per well, duplicate mean 6055.
ZNF280D (zinc finger protein 280D) [SID255358185] gave migration robust z-score 1.11; migration class with cell-count check migration z between -2 and 2; enough cells; nuclei per well, duplicate mean 5631.
Against ZNF600 (zinc finger protein 600) [SID255363761] the deposit lists migration robust z-score 1.25; migration class with cell-count check migration z between -2 and 2; enough cells; nuclei per well, duplicate mean 6152.
Depletion of GPX3 (glutathione peroxidase 3) [SID255350020] came out at: migration robust z-score 0.05; migration class with cell-count check migration z between -2 and 2; enough cells; nuclei per well, duplicate mean 5432.
Depletion of OR2W1 (olfactory receptor family 2 subfamily W member 1) [SID255356840] gave: migration robust z-score -1.65; migration class with cell-count check migration z between -2 and 2; enough cells; nuclei per well, duplicate mean 4018.
After knock-down of SHPK (sedoheptulokinase) [SID255356411], the screen gave migration robust z-score -0.57; migration class with cell-count check migration z between -2 and 2; enough cells; nuclei per well, duplicate mean 3504.
ZNF263 (zinc finger protein 263) [SID255354829] showed migration robust z-score -0.32; migration class with cell-count check migration z between -2 and 2; enough cells; nuclei per well, duplicate mean 7792.

Already shown: an excerpt of the list.
SLC25A10 [SID255349139] — migration robust z-score: 0.26; migration class with cell-count check: migration z between -2 and 2; enough cells; nuclei per well, duplicate mean: 5108
CUL1 (cullin 1) [SID255353565] — migration robust z-score: 2.7 (active); migration class with cell-count check: migration z above 2; enough cells; nuclei per well, duplicate mean: 5889

Further records follow:
After knock-down of TRIM49C (tripartite motif containing 49C) [SID255366130], the record shows migration robust z-score -0.44; migration class with cell-count check migration z between -2 and 2; enough cells; nuclei per well, duplicate mean 7114.
For MSN (moesin) [SID255351038], the entry reads migration robust z-score -0.3; migration class with cell-count check migration z between -2 and 2; enough cells; nuclei per well, duplicate mean 6486.
For AKR1C8 (aldo-keto reductase family 1 member C8) [SID255365107] the deposit lists migration robust z-score -0.45; migration class with cell-count check migration z between -2 and 2; enough cells; nuclei per well, duplicate mean 5752.
After knock-down of DDX41 (DEAD-box helicase 41) [SID255357711], the screen gave migration robust z-score -0.7; migration class with cell-count check migration z between -2 and 2; enough cells; nuclei per well, duplicate mean 5182.
With knock-down of MYL10 (myosin light chain 10) [SID255362075], the record shows migration robust z-score -0.42; migration class with cell-count check migration z between -2 and 2; enough cells; nuclei per well, duplicate mean 4925.
Depletion of MYRF (myelin regulatory factor) [SID255348626] came out at: migration robust z-score -0.25; migration class with cell-count check migration z between -2 and 2; enough cells; nuclei per well, duplicate mean 6366.
Against GABRR1 (gamma-aminobutyric acid type A receptor subunit rho1) [SID255349803], the entry reads migration robust z-score -0.49; migration class with cell-count check migration z between -2 and 2; enough cells; nuclei per well, duplicate mean 4569.
For FAAH2 (fatty acid amide hydrolase 2) [SID255363669], the entry reads migration robust z-score 0.99; migration class with cell-count check migration z between -2 and 2; enough cells; nuclei per well, duplicate mean 5388.
After knock-down of KNOP1 (lysine rich nucleolar protein 1) [SID255365743], the screen gave migration robust z-score 2.41 (active); migration class with cell-count check migration z above 2; enough cells; nuclei per well, duplicate mean 5912.
After knock-down of GON7 (GON7 subunit of KEOPS complex) [SID255361393], the record shows migration robust z-score -0.2; migration class with cell-count check migration z between -2 and 2; enough cells; nuclei per well, duplicate mean 5752.
DPPA4 (developmental pluripotency associated 4) [SID255358504] gave migration robust z-score -1.25; migration class with cell-count check migration z between -2 and 2; enough cells; nuclei per well, duplicate mean 6550.
After knock-down of OR4D5 (olfactory receptor family 4 subfamily D member 5) [SID255364209], the record shows migration robust z-score -0.09; migration class with cell-count check migration z between -2 and 2; enough cells; nuclei per well, duplicate mean 7504.
